From US20210121438A1, “METHODS FOR TREATING OR PREVENTING CONFORMATION DISEASES AND METHODS FOR DRUG SCREENING” (GARAGE BRAIN SCIENCE CO., LTD, priority 2018, published 2021) come the findings set out here.

Sequences of proteins named here, by UniProt entry; tags and fusion partners are left off. A change or cut given only in a name is not applied to a line headed by its entry.
UniProt Q13148: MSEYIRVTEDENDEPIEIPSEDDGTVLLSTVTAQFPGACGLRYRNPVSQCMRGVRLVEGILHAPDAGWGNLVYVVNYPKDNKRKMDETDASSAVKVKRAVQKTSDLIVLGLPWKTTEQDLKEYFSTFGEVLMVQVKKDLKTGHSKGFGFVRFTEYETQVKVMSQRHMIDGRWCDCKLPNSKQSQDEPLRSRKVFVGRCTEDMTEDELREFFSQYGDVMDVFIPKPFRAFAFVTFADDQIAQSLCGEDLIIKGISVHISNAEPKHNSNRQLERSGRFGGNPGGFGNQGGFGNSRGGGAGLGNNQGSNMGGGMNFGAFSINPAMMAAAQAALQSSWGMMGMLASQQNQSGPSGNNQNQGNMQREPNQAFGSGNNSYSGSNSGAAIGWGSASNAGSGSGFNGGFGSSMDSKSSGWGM
UniProt P20700: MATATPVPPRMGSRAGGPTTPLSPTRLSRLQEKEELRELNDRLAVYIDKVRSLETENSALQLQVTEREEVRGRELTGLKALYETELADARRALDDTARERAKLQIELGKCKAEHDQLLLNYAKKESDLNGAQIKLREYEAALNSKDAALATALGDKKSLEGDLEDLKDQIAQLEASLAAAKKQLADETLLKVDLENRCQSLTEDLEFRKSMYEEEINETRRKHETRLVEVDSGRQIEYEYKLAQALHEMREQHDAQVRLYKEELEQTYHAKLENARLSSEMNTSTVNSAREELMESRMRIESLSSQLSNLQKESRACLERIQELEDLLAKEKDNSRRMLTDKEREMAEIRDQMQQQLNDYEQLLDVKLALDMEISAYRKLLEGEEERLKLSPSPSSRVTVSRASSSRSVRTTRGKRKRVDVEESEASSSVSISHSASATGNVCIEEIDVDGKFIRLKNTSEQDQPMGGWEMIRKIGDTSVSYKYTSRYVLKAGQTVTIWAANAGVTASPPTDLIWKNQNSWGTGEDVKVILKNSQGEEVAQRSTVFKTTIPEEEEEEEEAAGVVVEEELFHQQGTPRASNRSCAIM

For experiment [1], the target named is TDP-43 (human) (UniProt Q13148). Nature of the experiment: co-immunoprecipitation, anti-His IP from His-VCP/p97-expressing 293T lysate, anti-TDP immunoblot.
Experiment [2] has the same target. As to the kind of experiment: co-immunoprecipitation, anti-His IP, anti-TDP immunoblot (FIG. 4f).
The target of experiment [3] is Lam B recombinant protein (Homo sapiens (Human)) (UniProt P20700). Nature of the experiment: co-incubation of recombinant proteins in vitro, electron microscopy (FIG. 13h).

Results are given in words; binding and its absence hold for the method and conditions named. For part of these data: Binding seen in cells or lysates may run through a third protein. Some results given as binding are weak or reduced against the parent protein; the word gives no strength.

“His-VCP/p97 wild type (from UniProt P55072 1-806) (enzyme)”: the binding result in the experiment with TDP-43 (human) [1] and with TDP-43 (human) [2] was “binds” each time.

For the substance “Purified full-length TDP-43 recombinant protein (from UniProt Q13148 1-414)”, in experiment [3], the binding entry is listed as “binds”.
